# Measured values: PubChem BioAssay AID1671190 (National Center for Advancing Translational Sciences (NCATS), 2021)
# Amino acid sequences for entries named in this document (tags omitted). A change or cut given only in a name is not applied to a line headed by its entry.
# UniProt P18054: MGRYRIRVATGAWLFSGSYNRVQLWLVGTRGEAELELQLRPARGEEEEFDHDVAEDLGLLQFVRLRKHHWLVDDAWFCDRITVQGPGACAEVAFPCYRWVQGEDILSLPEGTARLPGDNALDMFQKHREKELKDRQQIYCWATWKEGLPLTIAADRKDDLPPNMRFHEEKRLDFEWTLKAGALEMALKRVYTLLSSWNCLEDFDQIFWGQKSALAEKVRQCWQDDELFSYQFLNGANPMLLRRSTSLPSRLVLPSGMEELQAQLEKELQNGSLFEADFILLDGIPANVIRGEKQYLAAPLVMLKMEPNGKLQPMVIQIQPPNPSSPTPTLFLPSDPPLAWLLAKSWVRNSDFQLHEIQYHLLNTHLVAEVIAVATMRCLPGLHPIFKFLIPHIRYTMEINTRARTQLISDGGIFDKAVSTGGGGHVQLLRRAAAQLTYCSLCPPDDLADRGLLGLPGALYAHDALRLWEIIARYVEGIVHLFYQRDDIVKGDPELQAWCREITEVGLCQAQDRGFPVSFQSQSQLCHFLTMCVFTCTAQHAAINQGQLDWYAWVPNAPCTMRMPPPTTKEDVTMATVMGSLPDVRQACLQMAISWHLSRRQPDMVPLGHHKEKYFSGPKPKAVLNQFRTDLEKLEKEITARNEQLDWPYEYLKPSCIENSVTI
# Screen size: about 580,000 compounds; about 6,100 (1.1%) were called active. Roughly 15% stayed inconclusive and do not appear here. Calls follow the shape of the dose curve; as a rule, active = well fitted inhibition curve with a large enough effect; inconclusive = small, poorly fitted or top-dose-only effect, or another doubt; inactive = no such curve, though single readings can be large or run the other way. Only a part is listed here, and it is no random draw. The source gives no active or inactive call for entries shown without one.
# Target: Polyunsaturated fatty acid lipoxygenase ALOX12 (Homo sapiens) (UniProt P18054)
# Assay: Primary qHTS assay for inhibitors of human arachidonate 12S-lipoxygenase (ALOX12): Round 2
# Settings: purified 12hLO, xylenol orange hydroperoxide absorbance; activity change, negative = inhibition: at 0.00344 µM (top of the series) unless noted
# Outline: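 Hydroperoxide product was detected by ferrous iron/xylenol orange as the 573 to 405 nm absorbance ratio. Arachidonic acid at 40 uM (final) was turned over for 30 min at room temperature by 150 nM human 12hLO, pH 7.0 Hepes buffer, after 15 min compound preincubation.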
# % is scaled to controls: 0 for no effect and ±100 for the full control effect; potency is read from the fitted curve at half-maximal effect.
Compound,"activity change, negative = inhibition",Potency
O=C(c1cc(O)c(O)c(O)c1)c1ccc(O)c(O)c1O,-28.8%,–
CCN1CC(CCN2CCOCC2)C(c2ccccc2)(c2ccccc2)C1=O (stereo unspecified),-22.9%,–
C[C@H]1[C@H](NC(=O)/C(=N/OC(C)(C)C(=O)O)c2csc(N)n2)C(=O)N1S(=O)(=O)O (stereo in doubt),10.2%,–
COc1ccc2nc(NC(=O)Nc3ccccc3)sc2c1,13.6%,–
CCOC(=O)OC(C)OC1=C(C(=O)Nc2ccccn2)N(C)S(=O)(=O)c2ccccc21 (stereo unspecified),38.1%,–
COC(=O)c1cc(-c2ccco2)nc2c(Cl)cccc12,–,active: 22.4 µM
CCCCNC(=O)NS(=O)(=O)c1ccc(C)cc1,0.828%,–
Cc1cc(O)cc2c1O[C@](C)(CCC[C@H](C)CCC[C@H](C)CCCC(C)C)CC2,-23%,–
COC(=O)c1c(C)[nH]c(-c2csc(NC3CC3)n2)c1C,–,active: 31.6 µM
CCOc1ccccc1OCCN[C@H](C)Cc1ccc(OC)c(S(N)(=O)=O)c1,-29.2%,–
O=S(=O)(O)CCS,0.572%,–
CCn1cc(C(=O)O)c(=O)c2cnc(N3CCCC3)nc21,17.6% [at 0.000995 µM],–
CCOc1ccc(-c2nc(=S)[nH][nH]2)cc1,–,active: 25.1 µM
CC1(C)NC(=O)N(c2ccc([N+](=O)[O-])c(C(F)(F)F)c2)C1=O,-6.88%,–
O=C(O)c1ccccc1-c1ccc(C(F)(F)F)cc1,-4.78%,–
Cc1c(C)n(CCN(C)C)c2ccc(C(=O)OCCN(C)C)cc12,-13.8%,–
CCCCCCCCCCCCSCCOCCO,25.8%,–
Cc1nc2n(c(=O)c1CCN1CCC(C(=O)c3ccc(F)cc3)CC1)CCS2,-13.4%,–
CN(C)C(=O)Oc1cccc([N+](C)(C)C)c1,-11.6%,–
N#C/C(=C/c1ccc(O)c(O)c1)c1nc2ccccc2[nH]1,–,active: 7.94 µM
O=C(Oc1cccc2cccnc12)c1ccccc1,-7.54%,–
O=c1[nH]cnc2[nH]ncc12,-2.49%,–
Clc1ccc(C2C=C(c3ccccc3)Nc3nnnn32)c(Cl)c1 (stereo unspecified),–,active: 17.8 µM
CCCCCCCCCCC(CO)CCCCCCCC (stereo unspecified),0.912%,–
CCCC(=O)OCOC(=O)C1=C(C)NC(C)=C(C(=O)OC)C1c1cccc(Cl)c1Cl (stereo unspecified),-13%,–
CN(C/C=C/C#CC(C)(C)C)Cc1cccc2ccccc12,25.2%,–

Compound,"activity change, negative = inhibition",Potency
FC1(F)C(F)(F)C(F)(F)C2(F)C(F)(F)C(F)(F)C(F)(F)C(F)(F)C2(F)C1(F)F (stereo unspecified),47.1%,–
O=C1OC(/C=C/c2ccc(Cl)cc2Cl)=NC/1=C\c1cccs1,–,active: 35.5 µM
O=C1Nc2ccccc2C1(c1ccc(O)cc1)c1ccc(O)cc1,4.18%,–
NC(=O)COCCN1CCN(C(c2ccccc2)c2ccc(Cl)cc2)CC1 (stereo unspecified),25.2%,–
CNC(=O)Oc1ccc2c(c1)[C@]1(C)CCN(C)[C@@H]1N2C,-3.76%,–
CCN=C(N/N=C/c1ccc([N+](=O)[O-])cc1)SC,–,active: 31.6 µM
O=[N+]([O-])c1ccc(/C=N\O)o1,-27.4%,–
COc1ccc2c(c1)CCCC2=O,1.28%,–
CC(O)CCCCn1c(=O)c2c(ncn2C)n(C)c1=O (stereo unspecified),-3.26%,–
N[C@@H](CSSC[C@H](N)C(=O)O)C(=O)O,-25.6% [at 37.5 pM],–
CC(C)=CCC1C(=O)N(c2ccccc2)N(c2ccccc2)C1=O,-5.72%,–
CCOc1ccccc1OCc1nn2c(C3COc4ccccc4O3)nnc2s1 (stereo unspecified),–,active: 7.08 µM
Cc1cccc(OCC(O)CNC(C)(C)C)c1C (stereo unspecified),23.8%,–
COc1ccc2nc(/C(C#N)=C\c3ccco3)[nH]c2c1,–,active: 39.8 µM
CCOC(=O)Nc1ccc(NCc2ccc(F)cc2)nc1N,15.8%,–
Cc1coc2ccccc2c1=O,-32%,–
O=C1OC(OC(=O)c2cccnc2Nc2cccc(C(F)(F)F)c2)c2ccccc21 (stereo unspecified),6.56%,–
Nc1ccc([N+](=O)[O-])c(C(F)(F)F)c1,17.6%,–
CC(C)NCC(O)c1cc(O)cc(O)c1 (stereo unspecified),-1.83%,–
Cn1c(=O)c2c(ncn2CCO)n(C)c1=O,-40.2%,–
COc1cccc(NC(=O)C2C(c3ccccc3)C2(Cl)Cl)c1 (stereo unspecified),–,active: 35.5 µM
COc1nc(N)nc2c1ncn2[C@@H]1O[C@H](CO)[C@@H](O)[C@@H]1O,-6.82%,–
Clc1ccc(CNC2CCN(Cc3ccccc3)CC2)cc1,–,active: 8.91 µM
CCCCCCn1c(-c2cccs2)n[nH]c1=S,–,active: 28.2 µM
O=C(O)CCCCC1CCSS1 (stereo unspecified),-25.8%,–
COCC(=O)O[C@]1(CCN(C)CCCc2nc3ccccc3[nH]2)CCc2cc(F)ccc2[C@@H]1C(C)C,-23.6%,–

Compound,"activity change, negative = inhibition",Potency
CCCC1=[N+](CC)CCn2c(C)ccc21,–,active: 20 µM
C=CCCCCCCCCC(=O)O,-32.3%,–
CCN(CC)CCNC(=O)COc1ccc(OC)cc1,-3.01%,–
CC(=O)OCC1=C(C(=O)O)N2C(=O)[C@@H](NC(=O)Cc3cccs3)[C@H]2SC1,13%,–
O=C1CCC(N2C(=O)c3ccccc3C2=O)C(=O)N1 (stereo unspecified),48.1%,–
CC(=O)/C=C/C=C1/C2CCC(C2)C1(C)C (stereo unspecified),6.1%,–
CC(C)(C)CC(C)(C)c1ccc(O)c(-n2nc3ccccc3n2)c1,27.4%,–
Cc1cccc(N2CCN(Cc3ccc(Br)o3)CC2)c1C,–,active: 0.562 µM
CCN(CC)CCOc1ccccc1C(=O)CCc1ccccc1,1.37%,–
Cc1ccsc1C(=CCCN1CCC[C@@H](C(=O)O)C1)c1sccc1C,-30.7%,–
C[n+]1ccccc1/C=N/O,-15.2%,–
CCOc1cc(N)c(Cl)cc1C(=O)NCC1CN(Cc2ccc(F)cc2)CCO1 (stereo unspecified),-8.61%,–
COC(=O)C1=C(C)NC(C)=C(C(=O)OCCN(C)Cc2ccccc2)C1c1cccc([N+](=O)[O-])c1 (stereo unspecified),1.08%,–
CCCCCCCCCCCCOCCO,47.1%,–
CCOC(=O)c1ccc(O)c(O)c1,-13.6%,–
COC(=O)C1=C(C)NC(C)=C(C(=O)OCC(C)C)C1c1ccccc1[N+](=O)[O-] (stereo unspecified),29.6%,–
CC(=O)Nc1ccc(OCCOCCOc2ccc(NC(C)=O)cc2)cc1,-5.86%,–
CN(C)CCOC(c1ccc(Cl)cc1)c1ccccn1 (stereo unspecified),-8.75%,–
NC(=O)NC1NC(=O)NC1=O (stereo unspecified),22.8%,–
NNc1cc(Cl)c(Cl)cc1Cl,–,active: 7.08 µM
O=C(O)/C=C\C(=O)O,-13.1%,–
Cc1ccccc1C(OCCN(C)C)c1ccccc1 (stereo unspecified),-20.6%,–
Cc1c(I)c(=O)n(-c2ccccc2)n1C,-21.2%,–
CCOC(=O)N1CCN(c2nc(=S)n(-c3ccccc3)c(C)c2C(C)=O)CC1,–,active: 31.6 µM

# 14 consecutive compounds from above:
Compound,"activity change, negative = inhibition",Potency
CCOC(=O)Nc1ccc(NCc2ccc(F)cc2)nc1N,15.8%,–
Cc1coc2ccccc2c1=O,-32%,–
O=C1OC(OC(=O)c2cccnc2Nc2cccc(C(F)(F)F)c2)c2ccccc21 (stereo unspecified),6.56%,–
Nc1ccc([N+](=O)[O-])c(C(F)(F)F)c1,17.6%,–
CC(C)NCC(O)c1cc(O)cc(O)c1 (stereo unspecified),-1.83%,–
Cn1c(=O)c2c(ncn2CCO)n(C)c1=O,-40.2%,–
COc1cccc(NC(=O)C2C(c3ccccc3)C2(Cl)Cl)c1 (stereo unspecified),–,active: 35.5 µM
COc1nc(N)nc2c1ncn2[C@@H]1O[C@H](CO)[C@@H](O)[C@@H]1O,-6.82%,–
Clc1ccc(CNC2CCN(Cc3ccccc3)CC2)cc1,–,active: 8.91 µM
CCCCCCn1c(-c2cccs2)n[nH]c1=S,–,active: 28.2 µM
O=C(O)CCCCC1CCSS1 (stereo unspecified),-25.8%,–
COCC(=O)O[C@]1(CCN(C)CCCc2nc3ccccc3[nH]2)CCc2cc(F)ccc2[C@@H]1C(C)C,-23.6%,–
CCCC1=[N+](CC)CCn2c(C)ccc21,–,active: 20 µM
C=CCCCCCCCCC(=O)O,-32.3%,–
